According to PubChem BioAssay AID2685 (National Center for Advancing Translational Sciences (NCATS), 2010):
This is one part of the list. Shown are side measurements of this screen, not its main read-out; they come without a call. Compounds called inactive in the main read-out are mostly missing here. The note in brackets gives the kind of curve behind each potency; many fits are weak.

Assay: qHTS Assay for Lipid Storage Modulators in Drosophila S3 Cells;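 for cell number change: cells counted by Cell Tracker Red CMTPX staining in the red channel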
Settings: BODIPY lipid droplet fluorescence, 18-24 h; for cell number change: measured here: cell count max response, cells fed with added oleic acid
Method in brief: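 Drosophila S3 cells loaded with oleic acid (400 uM, as added) and compounds at several concentrations; lipid droplets imaged by 488-nm laser-scanning cytometry, 500–530 nm intensity and object ratio to cell channel. Percent activity normalized to 20 uM Triacsin C.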

[1] = measured here: cell number channel AC50, cells fed with added oleic acid
[2] = measured here: lipid fluorescence (Fed channel) AC50, cells fed with added oleic acid

Row | SMILES | cell number change [%] | AC50 [1] | AC50 [2]
1 | O=C(O)c1cccc(-n2cccc2/C=C2\NC(=O)N(Cc3ccc(F)cc3)C2=O)c1 | 1.59 | 1.84 µM [falling, partial curve] | 
2 | COC(=O)C1CSC(C(=O)OC)N1C(=O)CN1CC(C)OC(C)C1 (stereo not drawn) | -77.8 | 5.8 µM [falling, full curve] | 20.6 µM [falling, single point]
3 | COc1ccc(OCC(=O)NCCc2ccc(S(N)(=O)=O)cc2)cc1 | 11.6 |  | 6.51 µM [falling, single point]
4 | CC1CCCCN1S(=O)(=O)c1ccc(C(=O)Nc2nnc(C3=COCCO3)o2)cc1 (stereo not drawn) | -17.1 |  | 29.1 µM [falling, single point]
5 | O=C(O)c1ccc(NCc2nc3ccccc3n2CCOc2ccccc2Cl)cc1 | -13.7 | 6.51 µM [falling, single point] | 2.06 µM [falling, partial curve, poor fit]
6 | Cc1cccc(/C=N/n2c(C)nnc2C)c1 | 13.7 |  | 29.1 µM [falling, single point]
7 | Cc1nc(SCC(=O)Nc2ccccc2Cl)c2c(C)c(C)sc2n1 | -4.9 | 2.06 µM [rising, partial curve] | 13 µM [falling, partial curve, poor fit]
8 | Cc1ccc(Nc2nc(CSc3nnc(-c4cccs4)o3)cs2)cc1 |  | 2.06 µM [rising, partial curve] | 2.06 µM [rising, partial curve]
9 | CC(C)(O[C@@H]1O[C@H](CO)[C@@H](O)[C@H](O)[C@H]1O)[C@@H]1CC=C(C(=O)O)CC1 | 6.98 |  | 29.1 µM [rising, single point]
10 | COCCn1c(C)cc(C(=O)COC(=O)c2ccc(-n3nc(C)cc3C)cc2)c1C | 5.28 |  | 0.092 µM [falling, full curve, poor fit]
11 | COc1cc2c(cc1OC)C(C)N(C(=O)c1c(C)noc1C)CC2 (stereo not drawn) | 19.9 |  | 
12 | Cc1ccccc1OCC(=O)N/N=C1\CC(=O)CC(C)(C)C1 | 6.45 |  | 
13 | Cc1[nH]c(=O)nc(SCc2ccc(Cl)c(Cl)c2)c1C#N | 24.6 | 4.11 µM [rising, full curve, poor fit] | 
14 | COc1cc(C(=O)OCC(=O)N2CCN(C(C)=O)CC2)ccc1OCC(C)C | -2.03 |  | 
15 | Cc1cccnc1NC(=O)c1ccc([N+](=O)[O-])o1 | -22.8 |  | 11.6 µM [falling, partial curve]
16 | Cc1[nH]n(C2=NCCS2)c(=O)c1N=Nc1ccccc1 |  | 5.17 µM [rising, single point] | 
17 | Cc1c(CCOC(=O)c2ccccc2)sc[n+]1CC(=O)c1ccc(Br)cc1 | 19 |  | 6.51 µM [falling, single point]
18 | COc1cc(OC)cc(C(=O)NCC(=O)NC(C)CCc2ccccc2)c1 (stereo not drawn) | 4.17 |  | 0.58 µM [rising, single point]
19 | Cc1ccc(COc2cccc(/C=N/NC(=O)c3nnn(-c4nonc4N)c3C)c2)cc1 |  |  | 29.1 µM [falling, single point]
20 | Cc1ccc(N2C(=O)N(CC(=O)Nc3ccc(C)cc3Cl)C(=O)C2C)cc1 (stereo not drawn) | 38.2 | 3.66 µM [rising, full curve] | 3.26 µM [rising, full curve]
21 | COC(=O)C1C(=O)NCC1c1ccc(OC)cc1 (stereo not drawn) | 23.9 |  | 29.1 µM [falling, single point]

Copied from the list:
For cell number change [%], COc1ccc(OCC(=O)NCCc2ccc(S(N)(=O)=O)cc2)cc1 is listed with 11.6
For AC50 [2], Cc1nc(SCC(=O)Nc2ccccc2Cl)c2c(C)c(C)sc2n1 is listed with 13 µM [falling, partial curve, poor fit]
For AC50 [2], CC(C)(O[C@@H]1O[C@H](CO)[C@@H](O)[C@H](O)[C@H]1O)[C@@H]1CC=C(C(=O)O)CC1 is listed with 29.1 µM [rising, single point]
For AC50 [2], CC1CCCCN1S(=O)(=O)c1ccc(C(=O)Nc2nnc(C3=COCCO3)o2)cc1 (stereo not drawn) is listed with 29.1 µM [falling, single point]

(listing goes on)

Row | SMILES | cell number change [%] | AC50 [1] | AC50 [2]
22 | CC(=O)Nc1nnc(COc2ccccc2)s1 |  |  | 0.231 µM [rising, partial curve, poor fit]
23 | CC(C)CCN(C(=O)CNC(=O)c1cccs1)C(C(=O)NC1CCCCC1)c1cccnc1 (stereo not drawn) |  |  | 20.6 µM [rising, partial curve, poor fit]
24 | O=C(COC(=O)c1ccccc1)Nc1cccc(S(=O)(=O)N2CCOCC2)c1 | 6.15 |  | 16.4 µM [rising, single point]
25 | CC(=O)C1=C(O)C(=O)N(Cc2ccccc2)C1c1cccc([N+](=O)[O-])c1 (stereo not drawn) | 20.6 |  | 0.146 µM [rising, full curve, poor fit]
26 | CS(=O)(=O)c1ccc(C(=O)Nc2ccccc2N2CCOCC2)c(Cl)c1 | 13.2 | 4.11 µM [rising, single point] | 
27 | O=C(CCc1ccccc1)Nc1nc2c(F)cc(F)cc2s1 |  | 0.00461 µM [rising, full curve, poor fit] | 
28 | N#Cc1c(NC(=O)CCC(=O)O)sc2c1CCCC2 | 14.4 |  | 
29 | CCC(NC(=O)c1cc(COc2ccc(Cl)cc2OC)on1)c1ccncc1 (stereo not drawn) | 17.6 |  | 
30 | Cc1ccc(C)c(NC(=O)CSc2nnc(Cc3cccn3C)n2-c2ccc(F)cc2)c1 | 15.4 |  | 1.84 µM [rising, partial curve, poor fit]
31 | Cc1ccc(SCCC(=O)NCc2ccco2)cc1 | -23.1 |  | 
32 | COc1c(N2CCN(C(=S)Nc3ccccc3)C(C)C2)c(F)cc2c(=O)c(C(=O)O)cn(C3CC3)c12 (stereo not drawn) | 28.9 | 3.66 µM [rising, full curve, poor fit] | 
33 | O=C(Cc1ccc(Cl)cc1)Nc1ncc([N+](=O)[O-])s1 | -10 |  | 6.51 µM [falling, single point]
34 | OC(COCc1cccs1)CN1CCN(c2ccccn2)CC1 (stereo not drawn) | 16.6 |  | 3.66 µM [falling, single point]
35 | C/C(=N\OCC(=O)Nn1c(=O)[nH]c2ccccc2c1=O)c1ccccc1 | 14.1 |  | 
36 | CC(=O)NCCC(=O)Nc1cc(S(=O)(=O)N2CCOCC2)ccc1N1CCOCC1 | -1.97 |  | 1.46 µM [falling, partial curve, poor fit]
37 | Cc1sc2nc(CSC(C)C(=O)Nc3ccc(C(N)=O)cc3)[nH]c(=O)c2c1C (stereo not drawn) | -50.4 | 25.9 µM [falling, single point] | 16.4 µM [falling, partial curve]
38 | CCOC(=O)C1CCN(C(=O)c2ccc3c(c2)NC(=O)/C(=C/c2ccccc2)S3)CC1 | 0.236 |  | 29.1 µM [falling, single point]
39 | O=C(CNC(=O)c1ccccc1C(=O)O)c1ccccc1 | 3.04 |  | 6.51 µM [rising, single point]
40 | CC(=O)Nc1ccc(S(=O)(=O)NCc2ccc3[nH]c(C)cc3c2)cc1 |  |  | 0.58 µM [rising, partial curve]
41 | COc1ccc(NC(=O)c2ccccc2N(Cc2ccccc2)S(C)(=O)=O)cc1 | -11.2 |  | 16.4 µM [falling, partial curve]
42 | Nc1nc(-c2ccc(Cl)cc2)nn1C(=O)c1ccco1 | 88.1 |  | 0.461 µM [rising, partial curve, poor fit]

Row | SMILES | cell number change [%] | AC50 [1] | AC50 [2]
43 | CCNC(=O)c1ccc(CSc2nc3ccccc3s2)cc1 | 15.7 |  | 0.58 µM [falling, single point]
44 | Cc1ccccc1OCC(O)Cn1c(=N)n(Cc2ccccc2)c2ccccc21 (stereo not drawn) | -70.2 | 29.1 µM [falling, single point] | 13 µM [falling, partial curve, poor fit]
45 | CCCNC(=O)COc1cccc(C(=O)NCc2ccccc2)c1 | 4.86 |  | 29.1 µM [rising, single point]
46 | C[C@]12C(=O)N(c3cccc(F)c3)C(=O)N1[C@@H]1c3ccccc3OC[C@@H]1[C@H]2c1ccccc1 | 16.2 |  | 
47 | NC(=O)CSc1nc2ccccc2nc1SCC(N)=O | 34.7 | 32.6 µM [rising, single point] | 29.1 µM [rising, single point]
48 | C/C(N)=C(/C#N)C(=O)COC(=O)C1CSC2(c3ccc(F)cc3)CCC(=O)N12 (stereo not drawn) | -13.9 |  | 6.51 µM [rising, single point]
49 | Cc1ccc(Sc2ncccc2C(=O)O)cc1 |  |  | 11.6 µM [rising, single point]
50 | O=C(NCCc1csc(-c2ccccc2)n1)c1ccccc1F | -31.6 | 0.184 µM [falling, full curve, poor fit] | 
51 | CC(=O)Nc1cccc(NC(=O)CSc2ncc(-c3ccc(Cl)cc3)n2Cc2ccco2)c1 | -40 | 14.6 µM [falling, partial curve, poor fit] | 
52 | Cc1ccc(-n2nc(C)c3c(=O)[nH]c(C(F)(F)F)nc32)cc1 | 51 | 0.0291 µM [rising, full curve, poor fit] | 
53 | Cc1cc(=O)n2nc(N3CCCC(C(=O)NC4CCC(C)CC4)C3)sc2n1 (stereo not drawn) | 19.3 |  | 
54 | O=C(c1cccc(-c2nnc(-c3ccccc3)o2)c1)N1CCCCC1 | 109 |  | 0.103 µM [rising, full curve, poor fit]
55 | CCn1nnc(NC(=O)c2cc3ccccc3o2)n1 | 8.25 |  | 
56 | COC(=O)C1=C(C)NC(C)=C(C(=O)OC)C1c1ccc(-c2cccc([N+](=O)[O-])c2)o1 | 32.4 | 29.1 µM [rising, single point] | 
57 | Oc1ccc2ccc3[nH]cnc3c2c1 | 8.53 |  | 4.11 µM [rising, full curve, poor fit]
58 | O=C(COC(=O)/C=C/c1ccc(S(=O)(=O)N2CCOCC2)cc1)NCc1ccc2c(c1)OCO2 | 29.5 |  | 
59 | CCOC(=O)C(Cc1c[nH]c2ccccc12)NC(=O)c1ccco1 (stereo not drawn) | 96 | 29.1 µM [rising, single point] | 
60 | COc1ccc(OC(=O)c2cnc3n(c2=O)CCS3)cc1 | -34.5 |  | 29.1 µM [falling, single point]
61 | CC(C)(C)c1ccc(OCCNCc2ccccc2)cc1 | -29.3 |  | 29.1 µM [falling, single point]
62 | Cc1cccc(N(C)S(=O)(=O)c2ccc(-c3cc(C)no3)s2)c1 | -10.1 |  | 0.259 µM [falling, full curve, poor fit]
